US20250326797A1, “PROTEIN-PROTEIN INTERACTION MODULATORS AND METHODS FOR DESIGN THEREOF” (RAMOT AT TEL AVIV UNIVERSITY LTD., priority 2022, published 2025)
Results are given in words; binding and its absence hold for the method and conditions named. Some binding calls cover weakened binding; strength is not graded here.

Tests used:
[1] = target: Catalytic subunit of calcineurin (CaNA), residues 2-347 with substitutions Y341S, L343A and M347D (UniProt Q08209); test: FP competition assay against FITC-PVIVIT on CaNA
[2] = target: Catalytic subunit of calcineurin (CaNA), residues 2-347 with substitutions Y341S, L343A and M347D (UniProt Q08209); test: fluorescence polarization competition; unlabeled peptide titrated against 100 nM FITC-labeled PVIVIT bound to 4 uM CaNA

B1: rbmAKAP79 (designed binder)
peptide: AAGAGVGIVITVTEAE
modifications: N-ter acetylation and C-ter amidation
Question: How did the binding [1] turn out when B1 was run?
Answer: binds

Question: What about the binding [2] of the same binder?
Answer: binds

B2: rbmRIPOR2_2 (designed binder)
peptide: HVSSSPRITITPTQHR
modifications: N-ter acetylation and C-ter amidation
Question: With B2 as the binder, how does the binding [2] read?
Answer: binds

B3: rbmTRESK (designed binder)
peptide: ADEAIPEIVISKPEEP
modifications: N-ter acetylation and C-ter amidation
Question: B3 was tested. Which binding [1] did it give?
Answer: binds

Question: What about the binding [2] of the same binder?
Answer: binds

B4: rbmAKAP79_2 (designed binder)
peptide: ADGAGVGIVITVTEAE
modifications: N-ter acetylation and C-ter amidation
Question: With B4 as the binder, how does the binding [1] read?
Answer: binds
